# Laboratory results published in the supplement of paper PMC12819154, “High-throughput peptide-centric local stability assay extends protein–ligand identification to membrane proteins, tissues and bacteria” (Nature Structural & Molecular Biology, 2025).
# Protein sequences, listed by entry. Tags and fused reporters are not part of them. Lines headed by an entry give the natural chain unless they say otherwise; changes in a name come on top.
# UniProt Q46899: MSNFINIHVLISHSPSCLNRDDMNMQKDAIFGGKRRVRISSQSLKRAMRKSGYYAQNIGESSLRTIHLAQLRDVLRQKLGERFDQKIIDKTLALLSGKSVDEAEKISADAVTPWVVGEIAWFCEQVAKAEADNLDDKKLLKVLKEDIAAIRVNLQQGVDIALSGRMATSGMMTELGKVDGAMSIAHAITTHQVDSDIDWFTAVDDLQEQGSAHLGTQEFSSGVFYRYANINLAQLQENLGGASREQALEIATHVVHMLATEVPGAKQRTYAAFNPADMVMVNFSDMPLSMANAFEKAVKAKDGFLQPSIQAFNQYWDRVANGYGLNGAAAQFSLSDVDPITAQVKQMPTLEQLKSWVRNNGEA
# UniProt Q2EES0: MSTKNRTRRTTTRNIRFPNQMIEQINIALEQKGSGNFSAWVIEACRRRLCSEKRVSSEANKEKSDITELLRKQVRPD
# UniProt Q46835: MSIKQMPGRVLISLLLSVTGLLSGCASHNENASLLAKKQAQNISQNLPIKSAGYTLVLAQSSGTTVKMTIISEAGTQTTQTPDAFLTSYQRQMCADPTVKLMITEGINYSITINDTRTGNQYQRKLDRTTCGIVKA
# The list shows a part of the results. Most entries show no effect beyond the scatter of the controls.
# Compound: CC1(C)S[C@@H]2[C@H](NC(=O)[C@H](N)c3ccccc3)C(=O)N2[C@H]1C(=O)O [ampicillin]
# Assay: log2 fold change of tryptic peptide abundance, ligand vs vehicle (limited proteolysis) (log2 ratio); higher = more trypsin-susceptible (destabilized)
# Conditions: ligand concentration: 10 uM; sample: E. coli crude lysate
row,Target,log2 fold change
1,"UniProt Q46899 (peptide sequence: TIHLAQLR, peptide start residue: 65)",-0.0682
2,"UniProt Q2EES0 (peptide sequence: SDITELLR, peptide start residue: 64)",-0.251
3,"UniProt Q46835 (peptide sequence: QMCADPTVK, peptide start residue: 92)",0.0595
